The values below come from PMC8209004, “Structural basis of GTPase-mediated mitochondrial ribosome biogenesis and recycling” (Nature Communications, 2021).

Amino acid sequences for entries named in this document (tags omitted). Residues count along the entry.
UniProt Q96CB9, residues 26-384: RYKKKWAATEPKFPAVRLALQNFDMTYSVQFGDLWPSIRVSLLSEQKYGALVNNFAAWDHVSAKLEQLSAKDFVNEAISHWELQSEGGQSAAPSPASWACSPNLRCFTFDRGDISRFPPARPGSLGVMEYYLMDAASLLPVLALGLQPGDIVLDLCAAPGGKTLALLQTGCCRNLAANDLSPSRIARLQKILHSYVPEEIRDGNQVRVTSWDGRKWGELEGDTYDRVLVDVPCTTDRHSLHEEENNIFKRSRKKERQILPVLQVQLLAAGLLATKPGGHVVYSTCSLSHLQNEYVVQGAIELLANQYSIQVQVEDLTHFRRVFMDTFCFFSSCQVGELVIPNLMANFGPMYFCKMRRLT

No constants are given. Whether binding was seen depends on the method and setting. Some entries that bind do so weakly or less than the wild type.

This test deals with T1, MTERF4 (human) (UniProt Q7Z6M4).
T1 sequence: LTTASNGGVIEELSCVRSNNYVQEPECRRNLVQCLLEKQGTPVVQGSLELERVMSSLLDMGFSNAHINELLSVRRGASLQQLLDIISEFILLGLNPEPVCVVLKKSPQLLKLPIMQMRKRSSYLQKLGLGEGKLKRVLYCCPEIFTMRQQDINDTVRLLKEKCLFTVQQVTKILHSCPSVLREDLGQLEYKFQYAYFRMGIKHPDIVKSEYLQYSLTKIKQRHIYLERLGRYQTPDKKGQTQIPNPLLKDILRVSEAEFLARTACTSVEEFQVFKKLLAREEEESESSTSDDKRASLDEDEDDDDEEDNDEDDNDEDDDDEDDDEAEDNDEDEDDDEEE
Briefly: cryo-EM structure; native mtLSU assembly intermediates purified from Gtpbp6-/- HEK293 cells (dataset 1; the same two states seen again in dataset 2); reconstructions at 2.2 and 2.5 Å.

On to “NSUN4 (from UniProt Q96CB9 26-384) (enzyme)”, for which the binding result is listed as “binds”.
